PubChem BioAssay AID1259308 | NCATS – 2017
The whole screen tested about 59,000 reagents; below is an unselected part. Over the whole deposit, about 1,510 (2.6%) got an active call. 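Calls use total luciferase alone and ignore viability, so some active siRNAs may act by altering cell number.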 Reagent sequences are not shown.

- Purpose: 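Candidate targets for better recombinant protein yield in mammalian cells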 (primary screen)
- Cells: human HEK293 embryonic kidney cells stably expressing firefly luciferase (HEK-CMV-Luc2-Hygro)
- Reagent: single siRNA against human genes, 0.8 pmol siRNA per well
- Timing: 72 h
- Measurement: 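Reporter luminescence and viable-cell signal on separate replicate plates, given as percent of non-targeting control and median/MAD z-scores, plus per-cell luciferase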
- Direction: total luciferase, z-score and total luciferase, % of control: higher = more reporter protein produced; luciferase per cell, z-score: higher = more reporter output per viable cell; viable cells, % of control: higher = more viable cells
- Call rule: 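An siRNA counts as active if its total luciferase robust z-score exceeds 3; genes with two or more such siRNAs out of three were retested with fresh siRNAs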
- Calls: active = raised luciferase; inactive = no rise

total luciferase, z-score | total luciferase, % of control | luciferase per cell, z-score | viable cells, % of control | Call | target gene | PubChem SID
-0.0505 | 80.9 | -0.292 | 97.6 | inactive | B3GNT8 | SID160765343
-1.86 | 45 | -2.01 | 85.4 | inactive | B3GNT8 | SID160765344
3.71 | 156 | 3.16 | 75.7 | active | B3GNT8 | SID160765346
-0.495 | 72 | -0.964 | 104 | inactive | CLIC4 | SID160737285
0.41 | 90 | 0.269 | 93.7 | inactive | CLIC4 | SID160737286
0.445 | 90.7 | 0.615 | 86.2 | inactive | CLIC4 | SID160737288
-0.136 | 79.2 | -0.517 | 101 | inactive | AFG2B | SID160748502
-1.75 | 47.1 | -1.57 | 79.7 | inactive | AFG2B | SID160748503
-1.04 | 61.3 | -0.919 | 87.2 | inactive | AFG2B | SID160748504
1.49 | 112 | 1.13 | 92.6 | inactive | OR2Y1 | SID160757295
2.45 | 131 | 1.83 | 90 | inactive | OR2Y1 | SID160757296
0.636 | 94.5 | 0.525 | 92 | inactive | OR2Y1 | SID160757297
0.394 | 89.7 | 0.372 | 90.9 | inactive | OR4M2 | SID160766532
1.19 | 105 | 0.878 | 93.5 | inactive | OR4M2 | SID160766533
-1.73 | 47.5 | -1.98 | 89.3 | inactive | OR4M2 | SID160766534

The list goes on; the last 3 above are carried over.
total luciferase, z-score | total luciferase, % of control | luciferase per cell, z-score | viable cells, % of control | Call | target gene | PubChem SID
0.394 | 89.7 | 0.372 | 90.9 | inactive | OR4M2 | SID160766532
1.19 | 105 | 0.878 | 93.5 | inactive | OR4M2 | SID160766533
-1.73 | 47.5 | -1.98 | 89.3 | inactive | OR4M2 | SID160766534
-1.56 | 50.8 | -1.22 | 78.3 | inactive | ZNF423 | SID160735422
-1.74 | 47.2 | -0.995 | 68.6 | inactive | ZNF423 | SID160735423
1.53 | 112 | 1.14 | 93 | inactive | ZNF423 | SID160735424
0.27 | 87.3 | -0.23 | 104 | inactive | ERC1 | SID160735407
4.25 | 166 | 2.55 | 94.9 | active | ERC1 | SID160735408
-0.802 | 65.9 | -1.39 | 106 | inactive | ERC1 | SID160735409
2.36 | 129 | 1.98 | 85.5 | inactive | OTOP2 | SID160754353
1.3 | 108 | 1.98 | 71.4 | inactive | OTOP2 | SID160754354
0.446 | 90.8 | 0.951 | 79 | inactive | OTOP2 | SID160754355
1.72 | 116 | 1.87 | 79.4 | inactive | PODXL2 | SID160739629
0.0651 | 83.2 | 0.837 | 74.6 | inactive | PODXL2 | SID160739630
1.45 | 111 | 1.96 | 73.7 | inactive | PODXL2 | SID160739631
-0.161 | 78.7 | -0.0633 | 89.4 | inactive | SCN1A | SID160716383
0.964 | 101 | 0.215 | 107 | inactive | SCN1A | SID160716384
1.34 | 109 | 1.93 | 73 | inactive | SCN1A | SID160716385
3.21 | 146 | 2.66 | 80.9 | active | NOBOX | SID160730611
-1.84 | 45.2 | -1.89 | 83.1 | inactive | NOBOX | SID160757438
0.461 | 91.1 | 0.816 | 82.1 | inactive | NOBOX | SID160757439
1.2 | 106 | 1.22 | 85.6 | inactive | NDUFB9 | SID160777882
-0.172 | 78.5 | -0.0949 | 89.9 | inactive | NDUFB9 | SID160777883
-0.216 | 77.6 | -0.515 | 99.3 | inactive | NDUFB9 | SID160777884
2.56 | 133 | 2.28 | 81.5 | inactive | SLC2A9 | SID160745074
0.26 | 87.1 | 0.13 | 94 | inactive | SLC2A9 | SID160745075
-1.01 | 61.7 | -1.21 | 94.8 | inactive | SLC2A9 | SID160745076
